# Some of the results follow. Only hits are listed; about a third recur on repeated control peptides.
# By UniProt entry, the sequences of proteins in these tests, tags left out.
# DMAP1, Q9NPF5, UniProt Q9NPF5, whole entry: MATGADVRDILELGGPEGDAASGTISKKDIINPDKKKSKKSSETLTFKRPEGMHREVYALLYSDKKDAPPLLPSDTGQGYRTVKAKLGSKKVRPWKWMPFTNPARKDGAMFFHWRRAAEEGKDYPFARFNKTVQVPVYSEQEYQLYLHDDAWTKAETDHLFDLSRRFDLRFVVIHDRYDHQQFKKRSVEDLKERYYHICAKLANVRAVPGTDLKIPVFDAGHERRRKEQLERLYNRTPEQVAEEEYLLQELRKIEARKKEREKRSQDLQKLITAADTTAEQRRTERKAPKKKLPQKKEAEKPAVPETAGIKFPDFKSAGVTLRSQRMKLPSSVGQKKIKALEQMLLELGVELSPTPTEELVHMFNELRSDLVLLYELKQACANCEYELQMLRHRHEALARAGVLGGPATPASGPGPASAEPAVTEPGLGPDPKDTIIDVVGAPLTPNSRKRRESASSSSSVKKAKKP
# EIF1, P41567, UniProt P41567, whole entry: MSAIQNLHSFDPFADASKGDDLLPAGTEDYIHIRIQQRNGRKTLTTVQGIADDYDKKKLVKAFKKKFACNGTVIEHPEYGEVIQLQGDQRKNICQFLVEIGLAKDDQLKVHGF
# EIF2S2, P20042, UniProt P20042, whole entry: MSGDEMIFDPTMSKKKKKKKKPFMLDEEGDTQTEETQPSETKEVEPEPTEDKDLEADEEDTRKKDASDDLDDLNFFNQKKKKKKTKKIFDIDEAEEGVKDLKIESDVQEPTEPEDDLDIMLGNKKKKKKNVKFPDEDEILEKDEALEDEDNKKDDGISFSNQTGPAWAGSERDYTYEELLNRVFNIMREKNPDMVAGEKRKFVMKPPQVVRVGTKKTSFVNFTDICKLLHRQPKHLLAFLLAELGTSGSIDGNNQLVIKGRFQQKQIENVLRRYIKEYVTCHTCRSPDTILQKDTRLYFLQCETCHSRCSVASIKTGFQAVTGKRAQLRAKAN
# EP400, Q96L91, UniProt Q96L91, whole entry: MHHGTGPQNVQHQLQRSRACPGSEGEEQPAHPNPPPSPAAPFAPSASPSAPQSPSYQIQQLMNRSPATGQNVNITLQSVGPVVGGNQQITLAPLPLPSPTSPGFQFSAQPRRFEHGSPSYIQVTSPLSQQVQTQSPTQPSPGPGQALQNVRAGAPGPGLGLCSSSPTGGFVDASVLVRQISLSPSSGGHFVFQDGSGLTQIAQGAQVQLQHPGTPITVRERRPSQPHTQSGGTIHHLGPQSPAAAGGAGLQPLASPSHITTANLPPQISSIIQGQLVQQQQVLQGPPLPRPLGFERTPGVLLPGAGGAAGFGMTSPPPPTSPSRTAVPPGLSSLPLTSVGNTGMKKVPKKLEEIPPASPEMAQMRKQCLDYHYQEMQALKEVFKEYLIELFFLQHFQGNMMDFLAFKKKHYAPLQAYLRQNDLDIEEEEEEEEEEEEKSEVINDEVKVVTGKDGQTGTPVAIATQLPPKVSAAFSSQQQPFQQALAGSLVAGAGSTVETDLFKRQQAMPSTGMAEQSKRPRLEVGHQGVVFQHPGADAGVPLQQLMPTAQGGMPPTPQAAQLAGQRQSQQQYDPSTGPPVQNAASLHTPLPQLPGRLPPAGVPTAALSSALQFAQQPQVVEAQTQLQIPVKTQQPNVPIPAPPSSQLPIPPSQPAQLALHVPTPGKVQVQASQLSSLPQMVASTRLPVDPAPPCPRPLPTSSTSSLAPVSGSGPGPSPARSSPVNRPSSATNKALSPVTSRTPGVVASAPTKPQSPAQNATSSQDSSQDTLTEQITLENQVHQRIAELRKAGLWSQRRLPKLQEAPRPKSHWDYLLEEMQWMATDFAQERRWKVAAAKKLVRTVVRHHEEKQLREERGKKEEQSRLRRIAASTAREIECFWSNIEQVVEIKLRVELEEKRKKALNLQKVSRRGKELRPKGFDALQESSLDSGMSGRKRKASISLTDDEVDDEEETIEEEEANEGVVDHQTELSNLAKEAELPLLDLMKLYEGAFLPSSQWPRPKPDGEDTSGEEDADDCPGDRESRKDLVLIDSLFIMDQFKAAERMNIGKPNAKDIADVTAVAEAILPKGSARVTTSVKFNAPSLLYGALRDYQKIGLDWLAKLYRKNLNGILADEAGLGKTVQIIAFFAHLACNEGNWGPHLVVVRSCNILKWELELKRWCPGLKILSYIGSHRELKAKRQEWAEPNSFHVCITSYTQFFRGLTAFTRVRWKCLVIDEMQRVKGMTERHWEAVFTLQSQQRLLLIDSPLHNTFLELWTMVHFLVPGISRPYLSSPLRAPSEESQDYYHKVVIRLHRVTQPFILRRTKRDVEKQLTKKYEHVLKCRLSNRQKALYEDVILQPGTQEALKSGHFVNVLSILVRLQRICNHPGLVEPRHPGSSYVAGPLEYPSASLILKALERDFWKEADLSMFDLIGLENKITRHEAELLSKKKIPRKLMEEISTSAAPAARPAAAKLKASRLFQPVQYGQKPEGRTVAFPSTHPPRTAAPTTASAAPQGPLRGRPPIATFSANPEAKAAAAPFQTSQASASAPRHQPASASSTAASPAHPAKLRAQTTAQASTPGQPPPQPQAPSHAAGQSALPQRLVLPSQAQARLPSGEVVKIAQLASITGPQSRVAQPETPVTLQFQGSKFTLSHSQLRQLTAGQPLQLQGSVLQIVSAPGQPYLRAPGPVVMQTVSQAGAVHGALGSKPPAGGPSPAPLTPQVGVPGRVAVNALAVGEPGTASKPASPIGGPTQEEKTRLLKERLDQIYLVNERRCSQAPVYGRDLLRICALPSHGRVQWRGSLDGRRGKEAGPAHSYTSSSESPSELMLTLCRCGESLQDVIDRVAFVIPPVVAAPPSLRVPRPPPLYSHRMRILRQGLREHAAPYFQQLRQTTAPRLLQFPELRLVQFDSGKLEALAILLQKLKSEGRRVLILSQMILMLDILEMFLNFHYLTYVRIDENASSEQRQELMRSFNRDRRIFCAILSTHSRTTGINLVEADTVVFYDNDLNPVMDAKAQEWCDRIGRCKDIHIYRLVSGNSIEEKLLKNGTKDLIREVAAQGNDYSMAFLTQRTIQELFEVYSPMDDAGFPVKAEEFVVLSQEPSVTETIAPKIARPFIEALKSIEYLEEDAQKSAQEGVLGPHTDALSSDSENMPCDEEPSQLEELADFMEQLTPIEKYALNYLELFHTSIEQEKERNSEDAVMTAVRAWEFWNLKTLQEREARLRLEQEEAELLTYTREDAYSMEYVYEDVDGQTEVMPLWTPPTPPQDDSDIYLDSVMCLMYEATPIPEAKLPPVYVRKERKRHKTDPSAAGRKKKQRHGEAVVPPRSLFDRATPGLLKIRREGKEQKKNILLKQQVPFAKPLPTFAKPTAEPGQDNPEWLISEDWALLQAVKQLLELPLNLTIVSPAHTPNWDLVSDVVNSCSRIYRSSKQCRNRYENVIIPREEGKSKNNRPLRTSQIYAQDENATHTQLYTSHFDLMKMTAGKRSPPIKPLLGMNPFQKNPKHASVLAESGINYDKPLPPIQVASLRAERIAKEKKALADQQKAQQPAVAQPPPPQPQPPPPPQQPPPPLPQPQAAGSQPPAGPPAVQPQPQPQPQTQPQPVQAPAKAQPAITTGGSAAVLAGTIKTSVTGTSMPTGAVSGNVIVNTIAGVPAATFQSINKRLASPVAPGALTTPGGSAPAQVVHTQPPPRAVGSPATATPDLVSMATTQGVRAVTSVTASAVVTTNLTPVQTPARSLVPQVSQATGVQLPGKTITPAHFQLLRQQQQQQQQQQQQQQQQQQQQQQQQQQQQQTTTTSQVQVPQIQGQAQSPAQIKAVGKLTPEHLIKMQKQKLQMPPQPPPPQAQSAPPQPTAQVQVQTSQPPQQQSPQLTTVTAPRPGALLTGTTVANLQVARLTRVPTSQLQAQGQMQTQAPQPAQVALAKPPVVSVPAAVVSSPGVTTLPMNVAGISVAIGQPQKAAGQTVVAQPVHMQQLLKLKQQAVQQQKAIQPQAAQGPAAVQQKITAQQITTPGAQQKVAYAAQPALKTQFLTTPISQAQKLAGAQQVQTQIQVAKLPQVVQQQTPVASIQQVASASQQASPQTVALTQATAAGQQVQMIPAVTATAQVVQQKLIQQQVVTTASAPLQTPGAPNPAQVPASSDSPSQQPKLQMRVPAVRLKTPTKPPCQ
# GABARAP, O95166, UniProt O95166, whole entry: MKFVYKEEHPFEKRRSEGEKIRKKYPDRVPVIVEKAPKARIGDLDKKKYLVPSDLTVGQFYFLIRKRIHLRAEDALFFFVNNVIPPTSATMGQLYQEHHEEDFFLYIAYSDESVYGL
# RNF40, O75150, UniProt O75150, whole entry: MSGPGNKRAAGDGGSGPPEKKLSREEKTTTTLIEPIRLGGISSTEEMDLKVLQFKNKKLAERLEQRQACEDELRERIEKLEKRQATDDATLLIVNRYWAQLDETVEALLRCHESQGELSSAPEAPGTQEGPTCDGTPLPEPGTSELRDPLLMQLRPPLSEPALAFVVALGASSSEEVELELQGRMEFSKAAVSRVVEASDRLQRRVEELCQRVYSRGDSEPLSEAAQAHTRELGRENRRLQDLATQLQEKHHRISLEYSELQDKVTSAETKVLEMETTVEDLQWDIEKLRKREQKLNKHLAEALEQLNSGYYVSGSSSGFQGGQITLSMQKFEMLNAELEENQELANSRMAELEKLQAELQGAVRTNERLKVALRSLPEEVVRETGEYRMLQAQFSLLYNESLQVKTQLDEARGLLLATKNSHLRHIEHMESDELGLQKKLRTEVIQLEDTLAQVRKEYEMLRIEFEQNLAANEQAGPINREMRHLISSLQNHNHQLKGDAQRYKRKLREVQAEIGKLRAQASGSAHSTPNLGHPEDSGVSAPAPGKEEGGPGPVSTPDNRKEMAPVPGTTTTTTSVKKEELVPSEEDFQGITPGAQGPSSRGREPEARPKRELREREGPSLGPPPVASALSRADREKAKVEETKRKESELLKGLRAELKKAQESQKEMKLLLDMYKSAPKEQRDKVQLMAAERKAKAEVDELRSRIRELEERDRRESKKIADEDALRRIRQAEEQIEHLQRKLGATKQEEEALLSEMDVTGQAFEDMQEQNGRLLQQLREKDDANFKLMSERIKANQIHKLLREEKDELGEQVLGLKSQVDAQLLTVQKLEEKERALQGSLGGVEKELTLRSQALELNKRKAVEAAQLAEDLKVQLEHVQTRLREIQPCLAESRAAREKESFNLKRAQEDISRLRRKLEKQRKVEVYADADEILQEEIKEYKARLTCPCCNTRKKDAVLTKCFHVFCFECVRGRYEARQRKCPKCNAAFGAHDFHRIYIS
# SNRPB2, P08579, UniProt P08579, whole entry: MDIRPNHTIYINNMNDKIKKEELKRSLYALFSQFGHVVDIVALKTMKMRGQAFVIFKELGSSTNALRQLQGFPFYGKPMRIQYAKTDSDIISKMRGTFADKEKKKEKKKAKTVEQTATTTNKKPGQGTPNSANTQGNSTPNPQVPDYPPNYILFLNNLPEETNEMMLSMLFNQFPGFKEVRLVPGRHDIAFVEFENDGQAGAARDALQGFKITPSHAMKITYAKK
# UFM1, P61960, UniProt P61960, whole entry: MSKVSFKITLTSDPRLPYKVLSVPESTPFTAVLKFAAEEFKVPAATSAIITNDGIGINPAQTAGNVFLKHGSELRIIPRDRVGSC
# PRMT5, O14744, UniProt O14744, whole entry: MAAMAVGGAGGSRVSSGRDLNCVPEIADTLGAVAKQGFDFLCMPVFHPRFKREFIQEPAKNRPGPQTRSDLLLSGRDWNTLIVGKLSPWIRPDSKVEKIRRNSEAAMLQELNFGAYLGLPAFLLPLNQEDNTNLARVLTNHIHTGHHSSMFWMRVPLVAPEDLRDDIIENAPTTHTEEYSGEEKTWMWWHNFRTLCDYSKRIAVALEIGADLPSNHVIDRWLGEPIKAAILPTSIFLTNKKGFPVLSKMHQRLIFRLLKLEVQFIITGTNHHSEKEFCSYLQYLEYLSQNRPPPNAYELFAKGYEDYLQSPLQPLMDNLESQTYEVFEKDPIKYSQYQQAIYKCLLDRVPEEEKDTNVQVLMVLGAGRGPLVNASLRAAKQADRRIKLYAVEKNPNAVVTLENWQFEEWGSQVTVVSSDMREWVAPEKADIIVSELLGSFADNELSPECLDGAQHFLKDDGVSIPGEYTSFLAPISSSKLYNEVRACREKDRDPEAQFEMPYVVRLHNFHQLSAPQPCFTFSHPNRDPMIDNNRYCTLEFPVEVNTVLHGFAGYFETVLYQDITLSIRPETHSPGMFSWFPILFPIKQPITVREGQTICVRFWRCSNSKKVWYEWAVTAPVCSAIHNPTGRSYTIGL
# RFC4, P35249, UniProt P35249, whole entry: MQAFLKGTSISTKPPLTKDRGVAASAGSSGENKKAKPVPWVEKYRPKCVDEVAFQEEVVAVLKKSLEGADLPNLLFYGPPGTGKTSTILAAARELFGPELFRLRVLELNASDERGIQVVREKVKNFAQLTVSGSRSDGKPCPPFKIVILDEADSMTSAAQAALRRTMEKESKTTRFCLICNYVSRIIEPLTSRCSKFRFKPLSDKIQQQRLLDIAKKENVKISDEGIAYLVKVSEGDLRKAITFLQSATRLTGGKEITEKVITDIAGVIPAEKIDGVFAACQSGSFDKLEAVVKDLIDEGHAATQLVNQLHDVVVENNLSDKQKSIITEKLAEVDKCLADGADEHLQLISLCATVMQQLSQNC
# SNRPG, P62308, UniProt P62308, whole entry: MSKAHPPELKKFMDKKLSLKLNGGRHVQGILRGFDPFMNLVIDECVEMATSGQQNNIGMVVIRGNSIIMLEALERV
# How the values were obtained:
# Experiment in all cases: PRISMA enrichment of interactor (LFQ) in peptide spot vs all other peptide spots (log2 fold change); higher = stronger / more specific binding of the interactor to the peptide
# ACAT2, Q9BWD1 = target: ACAT2, Q9BWD1
# Experimental: (§1)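 PRISMA: 15-aa overlapping tiles (offset 8 aa) of 60 microproteins, plus SOS1/GLUT1 control peptides, were spot-synthesized on cellulose membranes in triplicate. Membranes were incubated with benzonase-treated HEK293T lysate, and bound proteins were identified by LC-MS/MS with LFQ. Enrichment is the log2 fold change of each protein in one spot versus all other spots. Only interactors passing the significance cutoff are listed.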
# C19orf53, Q9UNZ5 = target: C19orf53, Q9UNZ5
# Experimental: as §1
# CDCA5, Q96FF9 = target: CDCA5, Q96FF9
# Experimental: as §1
# CHTOP, Q9Y3Y2 = target: CHTOP, Q9Y3Y2
# Experimental: as §1
# DDX5, P17844 = target: DDX5, P17844
# Experimental: as §1
# DMAP1, Q9NPF5 = target: DMAP1, Q9NPF5
# Experimental: as §1
# EIF1, P41567 = target: EIF1, P41567
# Experimental: as §1
# EIF2S2, P20042 = target: EIF2S2, P20042
# Experimental: as §1
# EP400, Q96L91 = target: EP400, Q96L91
# Experimental: as §1
# G3BP2, Q9UN86 = target: G3BP2, Q9UN86
# Experimental: as §1
# GABARAP, O95166 = target: GABARAP, O95166
# Experimental: as §1
# GABARAPL2, P60520 = target: GABARAPL2, P60520
# Experimental: as §1
# GOLIM4, O00461 = target: GOLIM4, O00461
# Experimental: as §1
# HMGCL, P35914 = target: HMGCL, P35914
# Experimental: as §1
# ITCH, Q96J02 = target: ITCH, Q96J02
# Experimental: as §1
# MRPL27, Q9P0M9 = target: MRPL27, Q9P0M9
# Experimental: as §1
# NOL7, Q9UMY1 = target: NOL7, Q9UMY1
# Experimental: as §1
# PAFAH1B3, Q15102 = target: PAFAH1B3, Q15102
# Experimental: as §1
# PUS1, Q9Y606 = target: PUS1, Q9Y606
# Experimental: as §1
# RNF40, O75150 = target: RNF40, O75150
# Experimental: as §1
# SNRPB2, P08579 = target: SNRPB2, P08579
# Experimental: as §1
# UFM1, P61960 = target: UFM1, P61960
# Experimental: as §1
# ZMAT2, Q96NC0 = target: ZMAT2, Q96NC0
# Experimental: as §1
# ACAT1, P24752 = target: ACAT1, P24752
# Experimental: as §1
# AKAP1, Q92667 = target: AKAP1, Q92667
# Experimental: as §1
# CHTF18, Q8WVB6 = target: CHTF18, Q8WVB6
# Experimental: as §1
# COPG1, Q9Y678 = target: COPG1, Q9Y678
# Experimental: as §1
# FASTKD3, Q14CZ7 = target: FASTKD3, Q14CZ7
# Experimental: as §1
# GALK1, P51570 = target: GALK1, P51570
# Experimental: as §1
# H2AFY2, Q9P0M6 = target: H2AFY2, Q9P0M6
# Experimental: as §1
# IMPDH2, P12268 = target: IMPDH2, P12268
# Experimental: as §1
# IQCB1, Q15051 = target: IQCB1, Q15051
# Experimental: as §1
# KCNH1, O95259 = target: KCNH1, O95259
# Experimental: as §1
# LRRC40, Q9H9A6 = target: LRRC40, Q9H9A6
# Experimental: as §1
# MAP4K4, O95819 = target: MAP4K4, O95819
# Experimental: as §1
# MCM6, Q14566 = target: MCM6, Q14566
# Experimental: as §1
# NCAPG, Q9BPX3 = target: NCAPG, Q9BPX3
# Experimental: as §1
# PRMT5, O14744 = target: PRMT5, O14744
# Experimental: as §1
# PYCR3, Q53H96 = target: PYCR3, Q53H96
# Experimental: as §1
# RFC4, P35249 = target: RFC4, P35249
# Experimental: as §1
# SDE2, Q6IQ49 = target: SDE2, Q6IQ49
# Experimental: as §1
# SH3GL1, Q99961 = target: SH3GL1, Q99961
# Experimental: as §1
# SNRPG, P62308 = target: SNRPG, P62308
# Experimental: as §1
# SYMPK, Q92797 = target: SYMPK, Q92797
# Experimental: as §1
binder,measurement,setting,value
VFSEPDGFTVIFSGL [PVT1],PRISMA enrichment of interactor (log2),"ACAT2, Q9BWD1",4.15
same,PRISMA enrichment of interactor (log2),"C19orf53, Q9UNZ5",7.62
same,PRISMA enrichment of interactor (log2),"CDCA5, Q96FF9",4.61
same,PRISMA enrichment of interactor (log2),"CHTOP, Q9Y3Y2",6.05
same,PRISMA enrichment of interactor (log2),"DDX5, P17844",5.35
same,PRISMA enrichment of interactor (log2),"DMAP1, Q9NPF5",4.66
same,PRISMA enrichment of interactor (log2),"EIF1, P41567",6.29
same,PRISMA enrichment of interactor (log2),"EIF2S2, P20042",5.7
same,PRISMA enrichment of interactor (log2),"EP400, Q96L91",4.54
same,PRISMA enrichment of interactor (log2),"G3BP2, Q9UN86",5.53
same,PRISMA enrichment of interactor (log2),"GABARAP, O95166",5.76
same,PRISMA enrichment of interactor (log2),"GABARAPL2, P60520",6.38
same,PRISMA enrichment of interactor (log2),"GOLIM4, O00461",4.76
same,PRISMA enrichment of interactor (log2),"HMGCL, P35914",4.66
same,PRISMA enrichment of interactor (log2),"ITCH, Q96J02",4.56
same,PRISMA enrichment of interactor (log2),"MRPL27, Q9P0M9",7.29
same,PRISMA enrichment of interactor (log2),"NOL7, Q9UMY1",4.92
same,PRISMA enrichment of interactor (log2),"PAFAH1B3, Q15102",5.04
same,PRISMA enrichment of interactor (log2),"PUS1, Q9Y606",5.21
same,PRISMA enrichment of interactor (log2),"RNF40, O75150",4.57
same,PRISMA enrichment of interactor (log2),"SNRPB2, P08579",5.5
same,PRISMA enrichment of interactor (log2),"UFM1, P61960",5.46
same,PRISMA enrichment of interactor (log2),"ZMAT2, Q96NC0",4.71
RLRSLEAVSVIRMHW [SLCO5A1],PRISMA enrichment of interactor (log2),"ACAT1, P24752",5.17
same,PRISMA enrichment of interactor (log2),"ACAT2, Q9BWD1",5.54
same,PRISMA enrichment of interactor (log2),"AKAP1, Q92667",4.73
same,PRISMA enrichment of interactor (log2),"CHTF18, Q8WVB6",4.14
same,PRISMA enrichment of interactor (log2),"COPG1, Q9Y678",10.5
same,PRISMA enrichment of interactor (log2),"FASTKD3, Q14CZ7",3.87
same,PRISMA enrichment of interactor (log2),"GALK1, P51570",5
same,PRISMA enrichment of interactor (log2),"H2AFY2, Q9P0M6",6.13
same,PRISMA enrichment of interactor (log2),"IMPDH2, P12268",9.64
same,PRISMA enrichment of interactor (log2),"IQCB1, Q15051",6.48
same,PRISMA enrichment of interactor (log2),"KCNH1, O95259",3.72
same,PRISMA enrichment of interactor (log2),"LRRC40, Q9H9A6",6.01
same,PRISMA enrichment of interactor (log2),"MAP4K4, O95819",5.68
same,PRISMA enrichment of interactor (log2),"MCM6, Q14566",5.05
same,PRISMA enrichment of interactor (log2),"NCAPG, Q9BPX3",5.05
same,PRISMA enrichment of interactor (log2),"PRMT5, O14744",9.71
same,PRISMA enrichment of interactor (log2),"PYCR3, Q53H96",4.41
same,PRISMA enrichment of interactor (log2),"RFC4, P35249",6.05
same,PRISMA enrichment of interactor (log2),"SDE2, Q6IQ49",4.18
same,PRISMA enrichment of interactor (log2),"SH3GL1, Q99961",4.54
same,PRISMA enrichment of interactor (log2),"SNRPG, P62308",7.13
same,PRISMA enrichment of interactor (log2),"SYMPK, Q92797",4.16

# Three records drawn at random from those above:
binder,measurement,setting,value
RLRSLEAVSVIRMHW [SLCO5A1],PRISMA enrichment of interactor (log2),"COPG1, Q9Y678",10.5
same,PRISMA enrichment of interactor (log2),"LRRC40, Q9H9A6",6.01
VFSEPDGFTVIFSGL [PVT1],PRISMA enrichment of interactor (log2),"EIF1, P41567",6.29

# From the supplement of paper PMC10032668
